Reference: US7402298
No constants are given. Whether binding was seen depends on the method and setting. Some entries that bind do so weakly or less than the wild type.

By UniProt entry, the sequences of proteins in these tests, tags left out. Residues count along the entry.
UniProt P20827, residues 19-182: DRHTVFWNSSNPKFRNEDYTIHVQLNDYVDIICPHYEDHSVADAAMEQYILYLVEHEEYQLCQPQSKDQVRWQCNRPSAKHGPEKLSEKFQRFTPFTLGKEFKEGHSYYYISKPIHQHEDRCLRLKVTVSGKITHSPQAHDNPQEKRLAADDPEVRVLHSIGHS

How the values were obtained:
Cb1 adapter protein = Cb1 adapter protein (UniProt P22681); experiment: method not given; EphA2 activated by EphrinA1-Fc or monoclonal antibodies
[1] = molecular target: EphA2 receptor tyrosine kinase (human) (UniProt P29317); experiment: immunoprecipitation (IP)
[2] = molecular target: EphA2 receptor tyrosine kinase (human) (UniProt P29317); experiment: immunofluorescence staining (IF)

| binding (Cb1 adapter protein) | binding [1] | binding [2] | Substance |
| --- | --- | --- | --- |
| binds |  |  | EphA2 receptor tyrosine kinase (from UniProt P29317 24-976) |
|  | binds | binds | EphrinA1-Fc, the extracellular domain of ephrinA1 linked to immunoglobulin heavy chain (from UniProt P20827 19-182) (Fc fusion) |
